Results reported in patent publication US20040268437A1, “Method for biosynthesizing the serotonin derivatives in plants” (CHONNAM NATIONAL UNIVERSITY, priority 2003, published 2004).
At least one compound was matched to its structure with a doubt left.

Tested on: transgenic rice plants over-expressing THT
Assay: Transgenic rice grown in medium with tyramine or coumaric acid; content in leaves and stems
Assay type: in vivo
Conditions: transgenic rice in medium with 50 μM tyramine or coumaric acid, HPLC

O=C(O)/C=C/c1ccc(O)cc1 [Coumaric acid, coumaric acid]
Coumaroyltyramine and feruloyltyramine in the extract: neither coumaroyltyramine nor feruloyltyramine
